First the molecules themselves.
B1: G protein γ subunit AGG1 (protein, UniProt Q9FDX9 1-98)
chain: MREETVVYEQEESVSHGGGKHRILAELARVEQEVAFLEKELKEVENTDIVSTVCEELLSVIEKGPDPLLPLTNGPLNLGWDRWFEGPNGGEGCRCLIL
B2: G protein γ subunit AGG2 (protein, UniProt Q93V47 1-100)
chain: MEAGSSNSSGQLSGRVVDTRGKHRIQAELKRLEQEARFLEEELEQLEKMDNASASCKEFLDSVDSKPDPLLPETTGPVNATWDQWFEGPKEAKRCGCSIL
B3: G protein γ subunit AGG3 (protein, UniProt Q6AWT8 1-251)
chain: MSAPSGGGEGGGKESAAGGVSSSSLAPSSLPPPRPKSPPEYPDLYGKRREAARVQMLEREIGFLEGEIKFIEGVQPASRCIKEVSDFVVANSDPLIPAQRKSRRSFRFWKWLCGPCLSLVSFCCCCQSKCSCHLRKPKCCNCTSCSCIGSKCCDGSCCSNICCCPRLSCPSCSCFRGCWCSCPDMSCCIPSCFRSCSCTRPSCLNKKKSSCCSCNCKIRWSSCFSCPKVRLCSCCFCNCKNLCSNPCCLAF

No constants are given. Whether binding was seen depends on the method and setting. Some entries that bind do so weakly or less than the wild type.

Consider 3 molecules from article doi:10.1101/2023.11.26.568767.

The target in the assay is T1, GTP BINDING PROTEIN BETA 1 (AGB1), splice isoform AGB1.1 (Arabidopsis thaliana) (UniProt P49177).
T1 sequence: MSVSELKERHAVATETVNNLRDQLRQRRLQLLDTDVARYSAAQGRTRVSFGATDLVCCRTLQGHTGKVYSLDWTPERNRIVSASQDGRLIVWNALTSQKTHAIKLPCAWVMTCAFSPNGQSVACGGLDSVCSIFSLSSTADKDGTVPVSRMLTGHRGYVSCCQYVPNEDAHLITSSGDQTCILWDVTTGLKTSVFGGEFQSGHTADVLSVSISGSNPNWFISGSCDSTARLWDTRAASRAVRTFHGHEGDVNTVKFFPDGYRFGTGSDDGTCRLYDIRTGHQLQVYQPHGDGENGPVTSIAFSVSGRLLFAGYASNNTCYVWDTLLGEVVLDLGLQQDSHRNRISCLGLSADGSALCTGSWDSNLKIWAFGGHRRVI
Nature of the assay: two-hybrid.
As for B1, the binding result is reported as “binds”. Then B2, with “binds weakly”; and B3, with “binds”.
